# Experimental data: PubChem BioAssay AID1259405 (NCATS, 2018)
# Screen: 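Knock-downs that lift recombinant protein yield in hamster ovary cells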 (primary screen)
# Cells: Chinese hamster CHO-K1 ovary cells with stable secreted eGFP expression
# Reagent: single siRNA against mouse genes, 0.8 pmol siRNA per well (2 µl of 400 nM stock)
# Timing: 3 days
# Measurement: 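Per-well intracellular GFP measured by laser scanning cytometry, plus viability from ATP luminescence, each relative to plate median of non-targeting control wells, in %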
# Direction: GFP, % of control: higher = more GFP per well, higher productivity; viability (ATP), % of control: higher = more viable cells (more ATP)
# Rule for the call: 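a knock-down is called active if GFP reaches 120% or more of non-targeting control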
# In all, the deposit lists about 50,000 reagents; below is an unselected part. About 4,000 of all reagents (8%) count as active. 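Mouse siRNA library applied to hamster cells; one well for each siRNA.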 The numbers tell different reagents against one gene apart. No sequences are given here.
gene symbol,reagent no.,"GFP, % of control","viability (ATP), % of control",call
Bop1,1,83.2,72.9,inactive
Bop1,2,139,52.3,active
Bop1,3,173,98.4,active
Cmss1,1,34.4,71.1,inactive
Cmss1,2,60.5,103,inactive
Cmss1,3,79.7,113,inactive
Itgb5,1,66.4,121,inactive
Itgb5,2,95.7,98.2,inactive
Saxo4,1,76.8,49.8,inactive
Saxo4,2,45.3,68.2,inactive
Saxo4,3,89.5,88.8,inactive
Drgx,1,105,76.3,inactive
Drgx,2,71.7,69.7,inactive
Drgx,3,58,96.1,inactive
Rec8,1,66.5,87,inactive
Rec8,2,68.7,65.3,inactive
Rec8,3,62.3,78.9,inactive
Nr2f6,1,76.5,86.2,inactive
Nr2f6,2,70.5,67.3,inactive
Abcf3,1,79.8,107,inactive
Abcf3,2,71.9,55.1,inactive
Abcf3,3,54.8,63.2,inactive
Trpc1,1,102,84.5,inactive
Trpc1,2,79.6,98.6,inactive
Trpc1,3,59.7,71.1,inactive
Sema6c,1,89,71.5,inactive
Sema6c,2,68.2,83,inactive
Sema6c,3,86.4,115,inactive
Or5an1c,1,105,58.5,inactive
Or5an1c,2,82.4,90,inactive
Or5an1c,3,28.7,31.4,inactive
Cotl1,1,53.5,83.7,inactive
Cotl1,2,60.7,70.1,inactive
Cotl1,3,70,109,inactive
Ppm1m,1,64,85.4,inactive
Ppm1m,2,50.6,40,inactive
Ppm1m,3,94.5,104,inactive
Gpr33,1,73.8,53.4,inactive
Gpr33,2,60.1,82.1,inactive
Gpr33,3,77,82,inactive
Ddias,1,77.6,91.3,inactive
Ddias,2,77.2,90.2,inactive
Ddias,3,85.6,92.5,inactive
Psmd3,1,272,104,active
Psmd3,2,61.4,47.8,inactive
Psmd3,3,57.8,49,inactive
Psmd3,4,119,81.8,inactive
Psmd3,5,91.3,82.6,inactive
Psmd3,6,119,67,inactive
Dnah14,1,47.2,63.3,inactive
Dnah14,2,61.4,55.3,inactive
Dnah14,3,37.6,67.5,inactive
A330070K13Rik,1,46.2,34.1,inactive
A330070K13Rik,2,36.7,30,inactive
A330070K13Rik,3,70.8,85.5,inactive
Slc25a51,1,95.8,78.2,inactive
Slc25a51,2,104,78.3,inactive
Slc25a51,3,96.1,81.5,inactive
Asb16,1,86.7,65.4,inactive
Asb16,2,99.1,101,inactive
Asb16,3,324,130,active
Fbxw19,1,55.5,87.3,inactive
Fbxw19,2,69.7,55,inactive
Fbxw19,3,50,67.3,inactive
4833408A19Rik,1,61.8,71.6,inactive
4833408A19Rik,2,57.4,68.6,inactive
4833408A19Rik,3,81.1,77.7,inactive
Fblim1,1,85.1,39.7,inactive
Fblim1,2,28.3,42.2,inactive
Fblim1,3,99.9,91.5,inactive
Spata24,1,68.1,75.4,inactive
Spata24,2,101,91.1,inactive
Spata24,3,147,146,active
Vps33b,1,88.1,72.3,inactive
Vps33b,2,66.8,73.2,inactive
Vps33b,3,60.8,88.4,inactive
Wdr38,1,69.4,73.9,inactive
Wdr38,2,56.5,81.1,inactive
Wdr38,3,64.2,63.2,inactive
Cpeb3,1,74.1,78.4,inactive
Cpeb3,2,76.7,89.7,inactive
Cpeb3,3,79.7,75.1,inactive
Ccr6,1,68.4,67.8,inactive
Ccr6,2,67.1,65.5,inactive
Ccr6,3,81.6,73.3,inactive

Reagents above called active (5):
gene symbol,reagent no.,"GFP, % of control","viability (ATP), % of control",call
Bop1,2,139,52.3,active
Bop1,3,173,98.4,active
Psmd3,1,272,104,active
Asb16,3,324,130,active
Spata24,3,147,146,active
